Laboratory results reported in patent US20240383898A1.
The structures given here were assigned with low confidence; some may be wrong.

Amino acid sequences for entries named in this document (tags omitted).
UniProt P23458, whole entry: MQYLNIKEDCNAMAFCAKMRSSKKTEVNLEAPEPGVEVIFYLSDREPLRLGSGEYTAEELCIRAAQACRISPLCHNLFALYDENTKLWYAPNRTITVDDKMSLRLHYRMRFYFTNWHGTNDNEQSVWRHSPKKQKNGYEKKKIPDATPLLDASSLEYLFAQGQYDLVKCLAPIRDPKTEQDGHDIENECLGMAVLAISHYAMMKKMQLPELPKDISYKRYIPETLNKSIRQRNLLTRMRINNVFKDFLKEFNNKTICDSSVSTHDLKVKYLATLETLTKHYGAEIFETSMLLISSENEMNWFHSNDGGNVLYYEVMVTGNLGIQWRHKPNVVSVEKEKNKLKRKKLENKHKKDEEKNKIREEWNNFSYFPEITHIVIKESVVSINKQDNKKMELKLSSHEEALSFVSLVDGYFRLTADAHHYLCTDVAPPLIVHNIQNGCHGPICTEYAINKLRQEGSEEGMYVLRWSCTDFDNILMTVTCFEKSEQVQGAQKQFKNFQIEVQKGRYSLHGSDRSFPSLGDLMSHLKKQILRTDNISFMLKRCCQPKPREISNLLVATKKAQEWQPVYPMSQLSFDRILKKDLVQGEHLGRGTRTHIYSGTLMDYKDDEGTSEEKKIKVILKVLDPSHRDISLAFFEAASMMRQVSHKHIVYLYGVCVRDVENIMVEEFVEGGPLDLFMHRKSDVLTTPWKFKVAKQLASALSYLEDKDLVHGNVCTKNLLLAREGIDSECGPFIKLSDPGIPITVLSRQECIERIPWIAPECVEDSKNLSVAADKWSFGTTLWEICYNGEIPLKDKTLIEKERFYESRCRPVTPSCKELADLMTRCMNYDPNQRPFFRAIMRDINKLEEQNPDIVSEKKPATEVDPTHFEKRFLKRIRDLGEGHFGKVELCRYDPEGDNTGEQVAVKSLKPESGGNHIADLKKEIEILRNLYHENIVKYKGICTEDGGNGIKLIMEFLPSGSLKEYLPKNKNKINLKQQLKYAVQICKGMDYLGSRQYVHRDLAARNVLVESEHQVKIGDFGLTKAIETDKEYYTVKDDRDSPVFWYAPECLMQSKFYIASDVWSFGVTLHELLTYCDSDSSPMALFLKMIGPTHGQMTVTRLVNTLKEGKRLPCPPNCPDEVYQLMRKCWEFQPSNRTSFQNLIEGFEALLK
UniProt O60674, whole entry: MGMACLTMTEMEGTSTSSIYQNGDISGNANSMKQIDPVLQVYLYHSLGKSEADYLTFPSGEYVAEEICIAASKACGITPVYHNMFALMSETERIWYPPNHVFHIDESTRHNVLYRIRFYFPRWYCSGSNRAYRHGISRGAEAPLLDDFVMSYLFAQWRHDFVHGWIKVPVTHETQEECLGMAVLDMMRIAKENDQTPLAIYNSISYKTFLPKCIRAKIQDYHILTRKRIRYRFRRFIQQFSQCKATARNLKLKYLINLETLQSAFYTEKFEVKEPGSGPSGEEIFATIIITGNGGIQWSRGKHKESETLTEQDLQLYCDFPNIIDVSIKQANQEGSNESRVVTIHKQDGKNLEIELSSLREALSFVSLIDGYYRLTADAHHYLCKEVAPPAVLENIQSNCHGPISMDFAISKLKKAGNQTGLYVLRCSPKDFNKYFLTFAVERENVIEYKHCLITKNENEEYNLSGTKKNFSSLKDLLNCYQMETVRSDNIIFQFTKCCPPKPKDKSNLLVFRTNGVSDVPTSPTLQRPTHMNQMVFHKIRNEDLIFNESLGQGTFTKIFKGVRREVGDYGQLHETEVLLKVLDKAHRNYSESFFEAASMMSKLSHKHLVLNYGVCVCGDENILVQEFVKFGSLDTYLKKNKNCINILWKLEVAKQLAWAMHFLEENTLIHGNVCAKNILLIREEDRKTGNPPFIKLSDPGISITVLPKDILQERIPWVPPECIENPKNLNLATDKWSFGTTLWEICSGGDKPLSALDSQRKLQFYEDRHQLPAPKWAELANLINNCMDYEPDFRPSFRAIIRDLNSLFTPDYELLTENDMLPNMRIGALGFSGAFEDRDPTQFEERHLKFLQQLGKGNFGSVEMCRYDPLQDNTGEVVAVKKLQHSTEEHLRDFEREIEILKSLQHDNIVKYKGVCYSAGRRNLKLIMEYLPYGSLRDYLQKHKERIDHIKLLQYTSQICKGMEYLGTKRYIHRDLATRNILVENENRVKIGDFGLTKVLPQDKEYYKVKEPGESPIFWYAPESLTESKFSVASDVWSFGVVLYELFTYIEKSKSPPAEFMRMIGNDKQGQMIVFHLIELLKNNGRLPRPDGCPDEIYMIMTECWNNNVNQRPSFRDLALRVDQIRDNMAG

Tests used:
[1] = molecular target: JAK1 (Homo sapiens, UniProt P23458); experiment: In vitro activity test of JAK1 kinase (Caliper EZ Reader conversion assay); settings: read-out: JAK1 IC50; enzyme activity, 10 concentrations from 1000 nM, 3-fold dilution
[2] = molecular target: JAK2 (Homo sapiens, UniProt O60674); experiment: In vitro activity test of JAK2 kinase (Caliper EZ Reader conversion assay); format: biochemical; settings: read-out: JAK2 IC50; enzyme activity, 10 concentrations from 1000 nM, 3-fold dilution

`N#CC1CCC(n2c(-c3ccc(F)c(F)c3)nc3cnc4[nH]ccc4c32)CC1` (stereo not shown) gave an IC50 [1] of 100 to 1000 nM and an IC50 [2] of 10 to 100 nM.

`C[C@@H](O)c1nc2cnc3[nH]ccc3c2n1[C@@H]1CN(CCCC(F)(F)F)C[C@@H]1F` was tested, and the IC50 [1] was < 10 nM and the IC50 [2] was 100 to 1000 nM.
